No constants are given. Whether binding was seen depends on the method and setting. In cells and extracts the contact can be indirect. A result given as binding can be weak or reduced; the word gives no strength.

In PMC11442824 one finds binding data, which are given here for 1 molecule.

The target of test [1] is AMPKα (human (endogenous in a human podocyte cell line)). Nature of the test: co-IP; endogenous TRIM56 and AMPKα in lysate of cultured human podocytes; immunoprecipitation and immunoblotting; which protein was precipitated is not given.
Test [2] shares this target. Nature of the test: proximity ligation; Duolink in situ PLA on fixed, permeabilised podocytes with anti-TRIM56 and anti-AMPKα; cells under low glucose, high glucose, or high glucose with PVT1 ASO.

B1: tripartite motif (TRIM) 56 (protein, UniProt Q9BRZ2-1 1-755)
chain: MVSHGSSPSLLEALSSDFLACKICLEQLRAPKTLPCLHTYCQDCLAQLADGGRVRCPECRETVPVPPEGVASFKTNFFVNGLLDLVKARACGDLRAGKPACALCPLVGGTSTGGPATARCLDCADDLCQACADGHRCTRQTHTHRVVDLVGYRAGWYDEEARERQAAQCPQHPGEALRFLCQPCSQLLCRECRLDPHLDHPCLPLAEAVRARRPGLEGLLAGVDNNLVELEAARRVEKEALARLREQAARVGTQVEEAAEGVLRALLAQKQEVLGQLRAHVEAAEEAARERLAELEGREQVARAAAAFARRVLSLGREAEILSLEGAIAQRLRQLQGCPWAPGPAPCLLPQLELHPGLLDKNCHLLRLSFEEQQPQKDGGKDGAGTQGGEESQSRREDEPKTERQGGVQPQAGDGAQTPKEEKAQTTREEGAQTLEEDRAQTPHEDGGPQPHRGGRPNKKKKFKGRLKSISREPSPALGPNLDGSGLLPRPIFYCSFPTRMPGDKRSPRITGLCPFGPREILVADEQNRALKRFSLNGDYKGTVPVPEGCSPCSVAALQSAVAFSASARLYLINPNGEVQWRRALSLSQASHAVAALPSGDRVAVSVAGHVEVYNMEGSLATRFIPGGKASRGLRALVFLTTSPQGHFVGSDWQQNSVVICDGLGQVVGEYKGPGLHGCQPGSVSVDKKGYIFLTLREVNKVVILDPKGSLLGDFLTAYHGLEKPRVTTMVDGRYLVVSLSNGTIHIFRVRSPDS
Turning to B1, the binding entry in test [1] and in test [2] was “binds” in each case.
